Test results taken from PubChem BioAssay AID1487 (National Center for Advancing Translational Sciences (NCATS), 2009).
Some of the results follow. These are further read-outs of the screen, such as a control signal, another cell line or another target. No call is given for them. Compounds called inactive in the main read-out are mostly missing here. Words in brackets tell the shape of the fitted curve; partial curves, single points and poor fits give uncertain potencies.

Test: qHTS Assay for Modulators of Lamin A Splicing
Conditions: HeLa LMNA splicing GFP/RFP minigene ratio, 48 h
In short: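 S3 HeLa stable clones carrying a lamin A-EGFP splicing minigene plus DsRed2 were seeded at 600 cells/well in Opti-MEM with 2% FBS, pin-dosed and incubated 48 h at 37°C. Acumen cytometry (488 nm) gave the GFP/RFP total-intensity ratio.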

[1] = measured here: RFP viability control channel
[2] = measured here: GFP splicing reporter channel

| SMILES | AC50 [1] | AC50 [2] |
| --- | --- | --- |
| COc1cc(NC(=O)COc2ccc(Cl)cc2)ccc1-c1cc2ccccc2oc1=O | 14.1 µM [rising, single point] |  |
| Oc1ccc(N=Nc2c(O)ccc3ccccc23)cc1 | 0.891 µM [rising, single point] |  |
| CCC(C)N(C)Cc1cccc(C2(O)CCN(S(=O)(=O)c3ccc(F)c(C)c3)CC2)c1 (configuration not stated) | 31.6 µM [rising, single point] |  |
| CCOC(=O)C(C)(C)N(Cc1ccc(C)cc1)S(=O)(=O)c1ccc(Cl)c([N+](=O)[O-])c1 | 35.5 µM [rising, single point] |  |
| CCOC(=O)c1c(NC(=O)Cn2nc(C(F)(F)F)cc2C)sc2c1CCC2 | 17.8 µM [rising, single point] |  |
| COc1ccc(S(=O)(=O)NCCSC(C)(C)C)cc1Cl | 15.8 µM [rising, single point] |  |
| CC(C)C[C@H](N)CSSC[C@@H](N)CC(C)C | 17.8 µM [falling, partial curve] | 14.1 µM [falling, partial curve, poor fit] |
| O=c1cnnc(SCc2ccc([N+](=O)[O-])cc2)[nH]1 |  | 0.631 µM [rising, single point] |
| Oc1ccc(/C=N/N2CCN(C3c4ccccc4-c4ccccc43)CC2)c(O)c1 | 12.6 µM [falling, partial curve] | 12.6 µM [falling, partial curve] |
| CCOC(=O)c1[nH]nc2c1C(=O)N(Cc1ccccc1)C2=O |  | 12.6 µM [rising, single point] |
| CCOC(=O)c1sc(/N=C/c2c(O)ccc3ccccc23)cc1C | 35.5 µM [rising, single point] |  |
| O=S(=O)(NC1CC1)c1ccc(S(=O)(=O)N2CCCc3ccccc32)cc1 | 14.1 µM [rising, partial curve] |  |
| C=Cn1ccnc1P(=S)(c1ccc2c(c1)c1ccccc1n2CC)c1nccn1C=C | 10 µM [rising, partial curve] |  |
| COc1ccc2[nH]cc(CCNc3ncncc3-c3ccccc3C(F)(F)F)c2c1 |  | 10 µM [falling, partial curve, poor fit] |
| Cc1ccc(/C=C/S(=O)(=O)NCC(=O)O)cc1 | 3.98 µM [rising, full curve, poor fit] |  |
| CCOC(=O)c1c(C)[nH]c(C)c1C(=O)CSc1nnc(-c2ccc(OC(F)F)cc2)o1 | 12.6 µM [falling, partial curve] | 12.6 µM [falling, partial curve] |
| COc1cc(-c2cccs2)cc(=O)c2c(C)oc(C)c12 | 12.6 µM [rising, partial curve] | 17.8 µM [rising, partial curve, poor fit] |
| CCOC(=O)c1c(NC(=O)CSc2ncccn2)sc2c1CCN(Cc1ccccc1)C2 | 25.1 µM [rising, single point] | 14.1 µM [rising, partial curve, poor fit] |
| CC(=O)N1CCCc2cc(S(=O)(=O)N3CCC(C)CC3)ccc21 | 11.2 µM [rising, partial curve] | 8.91 µM [rising, partial curve, poor fit] |

| SMILES | AC50 [1] | AC50 [2] |
| --- | --- | --- |
| COc1ccc(N/N=C(\C=N\O)C(=O)c2ccc(OC)cc2)cc1 | 11.2 µM [falling, partial curve] | 7.94 µM [falling, partial curve, poor fit] |
| CCN(CC)c1ccc2cc(-c3nc(-c4ccc(OC)cc4)cs3)c(=O)oc2c1 | 1.12 µM [falling, full curve] | 1.58 µM [falling, full curve] |
| O=C(c1cccc(Cl)c1)N1CCN(Cc2ccccc2F)CC1 | 14.1 µM [rising, single point] |  |
| O=C(CC1C(=O)NCCN1Cc1ccc(-c2ccccc2)cc1)NCc1ccccc1 (configuration not stated) |  | 8.91 µM [rising, single point] |
| CCn1c(SCC(=O)N/N=C/c2ccc(O)c(OC)c2)nc2ccccc21 | 0.562 µM [rising, full curve] | 1.58 µM [rising, partial curve] |
| COc1cc(/C=C/C(=O)c2ccccc2O)cc(OC)c1OC | 35.5 µM [falling, single point] |  |
| Cc1cccc(CSCCNC(=O)c2ccc(CN3CCOCC3)cc2)c1 | 22.4 µM [rising, single point] | 12.6 µM [rising, partial curve] |
| COc1ccc(Cc2nc3ccc(C(=O)NCc4ccc(OC)cc4OC)cc3o2)cc1 | 0.00501 µM [falling, full curve, poor fit] |  |
| COc1cccc(-c2nc(NC(C)C)c3ccccc3n2)c1O | 0.0126 µM [falling, full curve, poor fit] | 31.6 µM [rising, single point] |
| Cc1c(C(=O)Nc2ccc(F)cc2)oc2ccc(S(=O)(=O)N3CC(C)CC(C)C3)cc12 (configuration not stated) | 2.82 µM [rising, full curve] |  |
| Cc1ccc(N(C(=O)c2ccccc2Cl)C2=NC(C)CS2)c(C)c1 (configuration not stated) | 11.2 µM [rising, single point] |  |
| CC(C)CCN(C(=S)Nc1cccc(F)c1)C1CCN(C(C)C)CC1 | 0.398 µM [falling, full curve, poor fit] |  |
| COCCN(C(=O)CCl)C(C(=O)NC1CCCCC1)c1ccccc1C (configuration not stated) | 35.5 µM [falling, single point] | 22.4 µM [falling, single point] |
| O=C(N/N=C/c1cc(Br)ccc1O)C(c1ccncc1)N1CCOCC1 (configuration not stated) | 31.6 µM [rising, single point] | 35.5 µM [rising, single point] |
| Cc1ccc(C)c(C(=O)CSc2n[nH]c(C(C)C)n2)c1 | 14.1 µM [rising, partial curve, poor fit] | 11.2 µM [rising, partial curve, poor fit] |
| N#CC1=C(N)Oc2cc3ccccc3cc2C1c1cccs1 (configuration not stated) | 2.51 µM [falling, partial curve, poor fit] | 2.24 µM [falling, partial curve, poor fit] |
| CC(C)NC(=O)c1cnc(N2CCN(c3ccccn3)CC2)c2ccccc12 | 11.2 µM [rising, partial curve] | 14.1 µM [rising, partial curve] |
| c1ccc(C2CNCc3c2ccc2ccccc32)cc1 (configuration not stated) | 22.4 µM [rising, single point] |  |
| O=C(CCl)Nc1cc2[nH]c(=O)[nH]c2cc1Br | 35.5 µM [falling, single point] | 3.55 µM [falling, full curve, poor fit] |

For convenience, part of the list above.

| SMILES | AC50 [1] | AC50 [2] |
| --- | --- | --- |
| Cc1ccc(C)c(C(=O)CSc2n[nH]c(C(C)C)n2)c1 | 14.1 µM [rising, partial curve, poor fit] | 11.2 µM [rising, partial curve, poor fit] |
| N#CC1=C(N)Oc2cc3ccccc3cc2C1c1cccs1 (configuration not stated) | 2.51 µM [falling, partial curve, poor fit] | 2.24 µM [falling, partial curve, poor fit] |

(cont.)

| SMILES | AC50 [1] | AC50 [2] |
| --- | --- | --- |
| Cc1ccc(S(=O)(=O)N2CCC(=O)N(C(COCc3ccc(C(F)(F)F)cc3)Cc3ccccc3)CC2)cc1 (configuration not stated) | 12.6 µM [rising, partial curve] | 7.08 µM [rising, partial curve] |
| O=C(NCCN1C(=O)S/C(=C\c2ccc(Cl)c(Cl)c2)C1=O)C1COc2ccccc2O1 (configuration not stated) |  | 5.62 µM [falling, single point] |
| Cc1nn(Cc2ccc(Cl)cc2)c(=O)n1N(C)c1ncc(C(F)(F)F)cc1Cl | 20 µM [rising, single point] |  |
| Clc1cccc(Cl)c1Cn1ccc(C2CC2)n1 |  | 0.501 µM [falling, full curve, poor fit] |
| CCc1ccc(C2C(C#N)=C(N)C(C#N)(C#N)C3=CCC(C(C)(C)C)CC32)cc1 (configuration not stated) | 22.4 µM [falling, single point] | 35.5 µM [falling, single point] |
| Brc1ccc(CNCc2cccs2)cc1 | 0.1 µM [rising, full curve, poor fit] |  |
| O=Cc1ccccc1Oc1ccccc1 | 0.158 µM [falling, full curve, poor fit] |  |
| O=C(C1CC(Cl)CN1S(=O)(=O)c1ccc(Cl)cc1)N1CCOCC1 (configuration not stated) | 0.282 µM [falling, full curve, poor fit] |  |
| CCOc1cccc(CNn2cnnc2)c1OCc1ccccc1Cl | 0.794 µM [rising, single point] |  |
| COc1ccc2oc(=O)c(-c3csc(Nc4ccc(O)cc4)n3)cc2c1 | 35.5 µM [falling, single point] | 35.5 µM [falling, single point] |
| CCc1ccc(NC(=O)Cn2c(=O)oc3cc(S(=O)(=O)N4CCOCC4)ccc32)cc1 | 11.2 µM [rising, partial curve] |  |
| Cc1ccc(S(=O)(=O)c2c(N)n(-c3ccccc3)c3nc4ccccc4nc23)cc1 | 14.1 µM [rising, single point] |  |
| CCc1ccc2nc3nc(C)cc(C)c3c(N)c2c1 | 14.1 µM [rising, partial curve] |  |
| CCCc1c(C)nn(-c2ncccc2[N+](=O)[O-])c1C |  | 20 µM [rising, partial curve] |
| COc1ccc(/C=C(\C#N)C(=O)OCC(=O)NC2CC2)cc1 | 12.6 µM [falling, partial curve, poor fit] |  |
| N#C/C(=C1\C(=O)Nc2c(Cl)cc(Cl)cc21)c1nnc2n1CCCCC2 | 22.4 µM [rising, partial curve] | 28.2 µM [rising, partial curve, poor fit] |
| Cc1cc(C(=O)CSc2nnc(NCc3ccccc3)s2)c(C)n1C | 31.6 µM [rising, single point] |  |
| c1csc(CNc2cc(-c3ccoc3)ncn2)c1 |  | 15.8 µM [falling, single point] |
